The values that follow come from article PMC5915530 (Scientific Reports, 2018).

A short description of the data set: general procedure: Fmoc solid-phase peptide synthesis; H-Rink amide-ChemMatrix (PCAS BioMatrix Inc.); Cl-HOBt/DIPCDI. Conditions: whole synthesis, 220 nm.

Some peptides are written in HELM: one residue between dots, names in brackets for other building blocks, links after the first $. Where only a bound is given, the exact number is not on record here.

“PEPTIDE1{[dP].[dW].[dV].[dP].[dS].[dW].[dM].[dP].[dP].[dR].[dH].[dT].[am]}$$$$V2.0”: the “final HPLC purity” value was above 99%.

“PEPTIDE1{[dH].[dR].[dP].[dY].[dI].[dA].[dH].[am]}$$$$V2.0”: the “final HPLC purity” value is recorded as above 99%.
